Data on one substance can be found in paper PMC7689448.

Protein sequences, listed by entry. Tags and fused reporters are not part of them.
UniProt Q9Y6Q9: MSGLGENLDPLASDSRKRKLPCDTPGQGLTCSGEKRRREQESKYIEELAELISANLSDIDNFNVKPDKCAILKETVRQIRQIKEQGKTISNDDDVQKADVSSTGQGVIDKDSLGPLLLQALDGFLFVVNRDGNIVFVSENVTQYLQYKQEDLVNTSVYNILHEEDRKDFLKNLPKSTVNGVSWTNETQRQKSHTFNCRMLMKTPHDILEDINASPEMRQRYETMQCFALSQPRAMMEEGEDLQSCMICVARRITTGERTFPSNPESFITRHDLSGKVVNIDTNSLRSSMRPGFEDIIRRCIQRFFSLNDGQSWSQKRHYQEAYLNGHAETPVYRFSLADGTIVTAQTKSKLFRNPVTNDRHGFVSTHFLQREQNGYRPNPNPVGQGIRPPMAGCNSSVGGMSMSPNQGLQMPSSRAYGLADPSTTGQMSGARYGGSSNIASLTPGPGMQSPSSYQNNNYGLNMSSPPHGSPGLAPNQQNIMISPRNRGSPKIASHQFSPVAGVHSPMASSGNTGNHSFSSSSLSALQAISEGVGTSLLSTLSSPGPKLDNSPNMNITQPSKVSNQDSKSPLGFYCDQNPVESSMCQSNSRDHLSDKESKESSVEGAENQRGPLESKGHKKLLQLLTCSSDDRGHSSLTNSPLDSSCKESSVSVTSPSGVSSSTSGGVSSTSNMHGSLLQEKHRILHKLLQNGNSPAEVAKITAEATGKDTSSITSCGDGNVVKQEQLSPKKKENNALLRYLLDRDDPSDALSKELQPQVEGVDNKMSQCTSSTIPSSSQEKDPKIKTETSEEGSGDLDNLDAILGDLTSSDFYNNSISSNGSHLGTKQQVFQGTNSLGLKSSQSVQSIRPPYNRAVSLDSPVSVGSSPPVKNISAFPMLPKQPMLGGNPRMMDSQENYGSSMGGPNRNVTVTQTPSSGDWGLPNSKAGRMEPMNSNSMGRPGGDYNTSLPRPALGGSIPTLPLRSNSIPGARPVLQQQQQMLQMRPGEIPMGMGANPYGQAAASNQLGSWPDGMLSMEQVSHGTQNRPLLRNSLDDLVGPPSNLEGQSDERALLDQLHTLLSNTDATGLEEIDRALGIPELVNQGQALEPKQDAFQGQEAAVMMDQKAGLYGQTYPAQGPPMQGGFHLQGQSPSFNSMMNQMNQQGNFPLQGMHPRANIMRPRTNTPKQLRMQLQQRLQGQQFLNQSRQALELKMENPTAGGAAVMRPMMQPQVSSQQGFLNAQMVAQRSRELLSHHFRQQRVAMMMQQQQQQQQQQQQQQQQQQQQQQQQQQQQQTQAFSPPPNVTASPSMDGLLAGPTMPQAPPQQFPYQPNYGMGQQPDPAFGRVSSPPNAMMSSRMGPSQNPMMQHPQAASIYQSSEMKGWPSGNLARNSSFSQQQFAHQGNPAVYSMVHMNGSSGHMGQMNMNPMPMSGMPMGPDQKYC
UniProt P08047: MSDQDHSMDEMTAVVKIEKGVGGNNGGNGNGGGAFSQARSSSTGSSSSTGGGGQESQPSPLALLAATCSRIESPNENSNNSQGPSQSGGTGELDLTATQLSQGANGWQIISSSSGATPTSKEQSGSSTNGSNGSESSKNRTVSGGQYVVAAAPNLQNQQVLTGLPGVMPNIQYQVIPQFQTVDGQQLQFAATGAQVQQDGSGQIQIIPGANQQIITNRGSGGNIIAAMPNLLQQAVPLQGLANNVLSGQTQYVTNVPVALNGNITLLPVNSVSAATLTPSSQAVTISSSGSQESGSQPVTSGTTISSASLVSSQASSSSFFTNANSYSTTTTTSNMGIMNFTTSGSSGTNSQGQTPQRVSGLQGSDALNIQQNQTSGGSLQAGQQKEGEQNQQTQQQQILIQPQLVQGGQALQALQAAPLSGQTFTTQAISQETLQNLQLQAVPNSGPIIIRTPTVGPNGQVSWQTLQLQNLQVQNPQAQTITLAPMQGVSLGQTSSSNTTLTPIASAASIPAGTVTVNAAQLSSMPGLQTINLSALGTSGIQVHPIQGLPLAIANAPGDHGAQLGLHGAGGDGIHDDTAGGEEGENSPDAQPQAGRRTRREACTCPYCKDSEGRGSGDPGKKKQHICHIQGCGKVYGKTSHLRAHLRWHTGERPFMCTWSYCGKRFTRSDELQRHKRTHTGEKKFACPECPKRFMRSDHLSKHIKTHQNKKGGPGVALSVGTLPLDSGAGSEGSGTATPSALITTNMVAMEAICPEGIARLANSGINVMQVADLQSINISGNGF

Assay [1] addresses nuclear receptor coactivator-3 (NCOA3), endogenous (human (endogenous in Hep3B and HepG2)) (UniProt Q9Y6Q9). The experiment in a line: co-IP; nuclear extracts of Hep3B and HepG2 cells with vector or NCOA3 overexpression; NCOA3 antibody and protein A/G agarose beads; SP1 detected by blot; IgG as negative control.
The target of assay [2] is NCOA3, overexpressed from lentivirus pLV[Exp]-Puro-CMV-NCOA3-IRES:EGFP (human) (UniProt Q9Y6Q9). Described as above.

Results are given in words; binding and its absence hold for the method and conditions named. Binding seen in cells or lysates may run through a third protein. Some results given as binding are weak or reduced against the parent protein; the word gives no strength.

For the substance “SP1, endogenous (from UniProt P08047 1-785)”, the binding entry in assay [1] and in assay [2] was “binds” each time.
